Numbering of substitutions follows the chain as printed. These are yes or no findings as the source states them, for the method shown. In cells and extracts the contact can be indirect. A yes stands for co-enrichment or nearness to the bait. Other partners may have been found. For part of these data: A no says only that the protein was not detected with the bait. Where a sequence is shown, tags or fusion partners need not be part of it.
How the values were obtained:
[1] = biological target: T1, CERKL-C125W-Flag (pathological point mutant of CERKLa) (human) (UniProt Q49MI3); experiment: affinity purification with mass spectrometry; Flag immunoprecipitation (M2 Flag beads, eluted with Flag peptide) from lysates of HEK-293T cells overexpressing Flag-tagged GFP, CERKL-WT or CERKL-C125W; 8% and 20% SDS-PAGE, silver stain, differential bands excised and identified by LC-MS/MS
T1 sequence: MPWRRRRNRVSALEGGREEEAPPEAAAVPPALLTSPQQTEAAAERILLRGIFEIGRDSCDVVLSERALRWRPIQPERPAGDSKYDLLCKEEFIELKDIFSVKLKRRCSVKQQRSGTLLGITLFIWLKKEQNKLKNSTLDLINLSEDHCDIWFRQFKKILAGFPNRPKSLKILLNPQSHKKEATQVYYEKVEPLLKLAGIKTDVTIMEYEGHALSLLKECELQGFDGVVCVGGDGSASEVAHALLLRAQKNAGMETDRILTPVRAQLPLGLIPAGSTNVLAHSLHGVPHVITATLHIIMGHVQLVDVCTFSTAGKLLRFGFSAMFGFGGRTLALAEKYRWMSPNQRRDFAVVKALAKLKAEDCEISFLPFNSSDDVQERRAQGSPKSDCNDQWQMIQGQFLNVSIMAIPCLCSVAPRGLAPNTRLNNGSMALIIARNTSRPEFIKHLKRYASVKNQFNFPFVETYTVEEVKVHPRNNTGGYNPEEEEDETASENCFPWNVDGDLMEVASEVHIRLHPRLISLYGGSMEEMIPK

Chains of the proteins cited; added tags and fusions are not shown.
UniProt P55884: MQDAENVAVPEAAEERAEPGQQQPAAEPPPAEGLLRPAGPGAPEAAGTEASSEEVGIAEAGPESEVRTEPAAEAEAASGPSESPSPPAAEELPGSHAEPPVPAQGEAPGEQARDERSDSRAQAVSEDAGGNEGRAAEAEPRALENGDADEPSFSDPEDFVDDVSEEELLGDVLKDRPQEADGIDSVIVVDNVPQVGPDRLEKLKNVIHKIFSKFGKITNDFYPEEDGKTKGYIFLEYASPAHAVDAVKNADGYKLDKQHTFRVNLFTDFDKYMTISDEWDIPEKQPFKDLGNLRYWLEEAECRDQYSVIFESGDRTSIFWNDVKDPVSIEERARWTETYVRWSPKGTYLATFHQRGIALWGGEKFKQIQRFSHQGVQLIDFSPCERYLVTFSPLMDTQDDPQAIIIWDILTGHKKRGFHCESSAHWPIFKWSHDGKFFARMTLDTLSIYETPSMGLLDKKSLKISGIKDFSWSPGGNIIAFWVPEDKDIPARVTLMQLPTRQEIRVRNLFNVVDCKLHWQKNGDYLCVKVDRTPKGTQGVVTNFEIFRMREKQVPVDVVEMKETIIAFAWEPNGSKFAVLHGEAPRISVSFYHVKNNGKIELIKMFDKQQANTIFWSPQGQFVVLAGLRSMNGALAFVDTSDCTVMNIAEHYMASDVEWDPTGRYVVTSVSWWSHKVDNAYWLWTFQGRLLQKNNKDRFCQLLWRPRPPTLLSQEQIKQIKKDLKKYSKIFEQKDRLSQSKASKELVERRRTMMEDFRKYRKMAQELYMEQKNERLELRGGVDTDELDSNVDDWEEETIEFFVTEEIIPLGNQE

[2] = biological target: T2, CERKL-Flag (CERKLa, full length CERKL isoform of 532 amino acids, wild type) (human) (UniProt Q49MI3); experiment: as above
T2 sequence: T1 sequence with W125C

Substance | binding [1] | binding [2]
HSP70 (human (endogenous in HEK-293T)) | binds | –
PABP (poly(A) binding protein) (human (endogenous in HEK-293T)) | binds | –
eIF3B (translation initiation factor eIF3B) (from UniProt P55884 1-814) | no binding | binds

The remaining lines, values ahead:

binding [1] | binding [2] | Substance
– | binds | alpha-tubulin (human (endogenous in HEK-293T))
– | binds | beta-tubulin (human (endogenous in HEK-293T))
